Data published in paper PMC3021530.
These are yes or no findings as the source states them, for the method shown. In cells and extracts the contact can be indirect. A yes stands for co-enrichment or nearness to the bait. Other partners may have been found.

Amino acid sequences for entries named in this document (tags omitted).
UniProt O00255: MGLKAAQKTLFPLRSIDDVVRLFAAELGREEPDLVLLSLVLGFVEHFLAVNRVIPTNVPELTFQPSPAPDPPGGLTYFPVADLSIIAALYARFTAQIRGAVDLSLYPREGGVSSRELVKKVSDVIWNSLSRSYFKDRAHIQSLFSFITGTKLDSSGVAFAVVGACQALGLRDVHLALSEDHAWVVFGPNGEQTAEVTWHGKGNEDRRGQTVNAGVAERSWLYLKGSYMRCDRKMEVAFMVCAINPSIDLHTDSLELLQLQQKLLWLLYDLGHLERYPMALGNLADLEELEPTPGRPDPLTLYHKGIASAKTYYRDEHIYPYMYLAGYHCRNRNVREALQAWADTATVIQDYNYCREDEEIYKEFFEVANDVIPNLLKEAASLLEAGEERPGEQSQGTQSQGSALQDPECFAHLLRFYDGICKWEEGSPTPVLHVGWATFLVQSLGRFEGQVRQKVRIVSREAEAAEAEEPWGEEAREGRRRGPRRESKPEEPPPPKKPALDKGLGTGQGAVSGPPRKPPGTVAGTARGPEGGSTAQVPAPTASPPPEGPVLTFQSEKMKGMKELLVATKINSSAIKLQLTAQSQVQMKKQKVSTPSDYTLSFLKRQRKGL
UniProt Q03164: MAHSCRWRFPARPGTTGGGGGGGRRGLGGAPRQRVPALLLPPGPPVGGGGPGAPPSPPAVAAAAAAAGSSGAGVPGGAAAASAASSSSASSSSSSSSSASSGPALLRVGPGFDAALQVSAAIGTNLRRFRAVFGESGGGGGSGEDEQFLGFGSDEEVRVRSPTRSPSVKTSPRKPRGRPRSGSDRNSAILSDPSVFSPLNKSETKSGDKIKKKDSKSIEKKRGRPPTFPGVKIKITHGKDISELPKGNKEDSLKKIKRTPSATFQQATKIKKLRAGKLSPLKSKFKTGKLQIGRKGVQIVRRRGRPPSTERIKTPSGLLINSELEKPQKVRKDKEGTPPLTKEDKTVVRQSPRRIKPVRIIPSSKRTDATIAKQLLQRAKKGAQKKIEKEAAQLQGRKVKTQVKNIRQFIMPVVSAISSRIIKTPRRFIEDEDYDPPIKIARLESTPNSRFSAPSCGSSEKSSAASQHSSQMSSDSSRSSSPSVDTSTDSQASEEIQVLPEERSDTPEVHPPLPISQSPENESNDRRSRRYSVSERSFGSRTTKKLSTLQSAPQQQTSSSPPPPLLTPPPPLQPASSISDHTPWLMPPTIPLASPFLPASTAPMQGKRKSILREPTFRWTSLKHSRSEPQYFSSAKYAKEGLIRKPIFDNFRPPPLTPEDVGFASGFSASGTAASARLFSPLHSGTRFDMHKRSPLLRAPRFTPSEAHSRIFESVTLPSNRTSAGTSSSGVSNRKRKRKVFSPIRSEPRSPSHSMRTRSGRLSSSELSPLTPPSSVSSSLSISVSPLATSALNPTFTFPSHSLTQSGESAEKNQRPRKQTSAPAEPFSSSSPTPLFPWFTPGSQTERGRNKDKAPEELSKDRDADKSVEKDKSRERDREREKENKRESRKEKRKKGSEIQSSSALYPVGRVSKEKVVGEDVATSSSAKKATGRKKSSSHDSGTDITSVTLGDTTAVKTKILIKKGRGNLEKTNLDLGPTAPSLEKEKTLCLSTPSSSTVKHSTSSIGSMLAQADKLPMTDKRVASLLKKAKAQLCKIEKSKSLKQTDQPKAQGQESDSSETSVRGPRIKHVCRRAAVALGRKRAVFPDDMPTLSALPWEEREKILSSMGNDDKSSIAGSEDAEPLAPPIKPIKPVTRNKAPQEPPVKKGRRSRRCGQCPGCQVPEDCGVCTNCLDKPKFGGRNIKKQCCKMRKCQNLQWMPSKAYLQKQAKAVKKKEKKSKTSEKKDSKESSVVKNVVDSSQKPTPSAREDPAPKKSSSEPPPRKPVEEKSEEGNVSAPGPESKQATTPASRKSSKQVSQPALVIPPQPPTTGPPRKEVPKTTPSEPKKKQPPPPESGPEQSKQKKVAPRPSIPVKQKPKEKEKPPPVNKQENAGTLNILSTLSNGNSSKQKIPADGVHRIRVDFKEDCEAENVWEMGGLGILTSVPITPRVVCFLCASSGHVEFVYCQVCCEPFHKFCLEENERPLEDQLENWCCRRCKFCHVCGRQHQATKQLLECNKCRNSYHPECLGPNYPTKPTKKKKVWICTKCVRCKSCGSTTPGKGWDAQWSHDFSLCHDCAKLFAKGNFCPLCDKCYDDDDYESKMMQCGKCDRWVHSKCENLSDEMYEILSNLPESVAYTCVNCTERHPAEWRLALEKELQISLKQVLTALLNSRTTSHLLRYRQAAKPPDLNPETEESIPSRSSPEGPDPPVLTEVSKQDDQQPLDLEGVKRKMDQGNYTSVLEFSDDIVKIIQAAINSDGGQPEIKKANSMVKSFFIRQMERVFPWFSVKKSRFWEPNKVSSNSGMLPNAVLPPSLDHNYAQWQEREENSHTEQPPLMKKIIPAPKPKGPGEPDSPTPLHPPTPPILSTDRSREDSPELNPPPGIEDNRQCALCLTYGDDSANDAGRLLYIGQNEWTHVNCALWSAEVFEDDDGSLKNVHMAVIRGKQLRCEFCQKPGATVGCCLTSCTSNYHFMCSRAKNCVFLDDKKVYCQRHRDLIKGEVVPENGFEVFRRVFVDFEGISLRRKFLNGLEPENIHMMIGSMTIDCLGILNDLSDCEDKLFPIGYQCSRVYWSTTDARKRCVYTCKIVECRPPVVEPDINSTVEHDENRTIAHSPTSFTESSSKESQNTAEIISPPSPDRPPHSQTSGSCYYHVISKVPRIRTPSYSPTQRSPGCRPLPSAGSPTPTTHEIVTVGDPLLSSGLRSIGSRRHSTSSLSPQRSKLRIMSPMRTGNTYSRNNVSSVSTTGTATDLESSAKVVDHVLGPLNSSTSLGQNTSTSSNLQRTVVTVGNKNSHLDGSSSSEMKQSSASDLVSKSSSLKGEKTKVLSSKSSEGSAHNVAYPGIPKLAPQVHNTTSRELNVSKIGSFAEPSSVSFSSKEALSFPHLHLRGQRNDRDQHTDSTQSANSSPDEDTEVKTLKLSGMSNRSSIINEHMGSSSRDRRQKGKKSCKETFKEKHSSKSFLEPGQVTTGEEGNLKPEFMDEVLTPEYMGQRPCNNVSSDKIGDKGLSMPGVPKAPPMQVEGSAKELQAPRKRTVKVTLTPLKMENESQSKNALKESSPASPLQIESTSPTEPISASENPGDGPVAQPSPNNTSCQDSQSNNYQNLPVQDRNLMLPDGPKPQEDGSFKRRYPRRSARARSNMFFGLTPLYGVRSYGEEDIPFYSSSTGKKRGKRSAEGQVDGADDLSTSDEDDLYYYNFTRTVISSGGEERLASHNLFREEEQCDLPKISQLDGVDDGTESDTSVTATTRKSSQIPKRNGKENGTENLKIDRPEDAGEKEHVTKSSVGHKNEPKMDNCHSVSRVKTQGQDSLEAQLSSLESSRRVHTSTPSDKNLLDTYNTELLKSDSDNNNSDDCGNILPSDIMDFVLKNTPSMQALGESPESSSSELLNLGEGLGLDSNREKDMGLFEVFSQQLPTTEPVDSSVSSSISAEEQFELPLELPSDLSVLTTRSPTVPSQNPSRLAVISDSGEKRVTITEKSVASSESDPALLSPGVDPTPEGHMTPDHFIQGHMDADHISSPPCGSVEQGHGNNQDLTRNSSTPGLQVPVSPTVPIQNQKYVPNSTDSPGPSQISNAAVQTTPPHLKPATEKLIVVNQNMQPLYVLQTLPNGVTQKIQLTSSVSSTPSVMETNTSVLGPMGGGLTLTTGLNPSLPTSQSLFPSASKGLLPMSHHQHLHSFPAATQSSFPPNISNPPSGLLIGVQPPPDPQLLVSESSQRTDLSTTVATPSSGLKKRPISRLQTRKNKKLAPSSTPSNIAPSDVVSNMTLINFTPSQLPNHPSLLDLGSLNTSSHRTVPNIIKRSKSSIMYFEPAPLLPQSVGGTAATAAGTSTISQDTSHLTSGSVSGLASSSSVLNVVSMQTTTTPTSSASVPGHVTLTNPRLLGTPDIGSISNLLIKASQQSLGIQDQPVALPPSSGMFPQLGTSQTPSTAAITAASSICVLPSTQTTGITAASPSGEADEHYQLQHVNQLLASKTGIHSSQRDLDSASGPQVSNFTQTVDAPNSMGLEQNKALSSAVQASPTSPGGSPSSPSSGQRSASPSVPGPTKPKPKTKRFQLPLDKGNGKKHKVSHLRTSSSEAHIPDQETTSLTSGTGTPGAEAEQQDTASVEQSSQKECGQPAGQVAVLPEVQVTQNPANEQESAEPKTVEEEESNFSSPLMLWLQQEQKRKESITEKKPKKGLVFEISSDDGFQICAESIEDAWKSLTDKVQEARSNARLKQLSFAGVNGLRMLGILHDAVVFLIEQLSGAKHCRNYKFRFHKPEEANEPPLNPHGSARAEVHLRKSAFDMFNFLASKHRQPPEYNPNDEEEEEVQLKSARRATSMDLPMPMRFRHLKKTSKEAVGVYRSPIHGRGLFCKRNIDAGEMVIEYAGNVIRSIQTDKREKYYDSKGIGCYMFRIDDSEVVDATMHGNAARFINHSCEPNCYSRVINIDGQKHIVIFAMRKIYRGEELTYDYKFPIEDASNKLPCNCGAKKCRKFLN

Biological target: menin (endogenous, immunoprecipitated from 293T cells) (human (endogenous in 293T)) (UniProt O00255)
Assay: affinity purification with mass spectrometry; endogenous menin immunoprecipitated from 293T cells, untreated, 6 hours after 1000 Rads γ-IR or 2 hours after 25 J/m^2 UV; prominent bands excised for mass spectrometry

Row | binding | Substance
1 | binds | KMT2D (MLL4 originally known as MLL2) (from UniProt Q9UMN6 1-2715)
2 | binds | KMT2A (MLL) (from UniProt Q03164 1-3969)
